According to the supplement of paper PMC3334620:
Whole data set: some 33,000 sequences, median “E-score (-0.5 to 0.5)” near -0.015, cut for the highest 2% near 0.3. Some of the results follow.

target: T1, Abf1 (UniProt P14164); assay: PBM E-score (8-mer binding enrichment) (E-score (-0.5 to 0.5)); higher = stronger / more preferred TF binding; conditions: protein concentration: 200 nM; construct: GST-full length
T1 sequence: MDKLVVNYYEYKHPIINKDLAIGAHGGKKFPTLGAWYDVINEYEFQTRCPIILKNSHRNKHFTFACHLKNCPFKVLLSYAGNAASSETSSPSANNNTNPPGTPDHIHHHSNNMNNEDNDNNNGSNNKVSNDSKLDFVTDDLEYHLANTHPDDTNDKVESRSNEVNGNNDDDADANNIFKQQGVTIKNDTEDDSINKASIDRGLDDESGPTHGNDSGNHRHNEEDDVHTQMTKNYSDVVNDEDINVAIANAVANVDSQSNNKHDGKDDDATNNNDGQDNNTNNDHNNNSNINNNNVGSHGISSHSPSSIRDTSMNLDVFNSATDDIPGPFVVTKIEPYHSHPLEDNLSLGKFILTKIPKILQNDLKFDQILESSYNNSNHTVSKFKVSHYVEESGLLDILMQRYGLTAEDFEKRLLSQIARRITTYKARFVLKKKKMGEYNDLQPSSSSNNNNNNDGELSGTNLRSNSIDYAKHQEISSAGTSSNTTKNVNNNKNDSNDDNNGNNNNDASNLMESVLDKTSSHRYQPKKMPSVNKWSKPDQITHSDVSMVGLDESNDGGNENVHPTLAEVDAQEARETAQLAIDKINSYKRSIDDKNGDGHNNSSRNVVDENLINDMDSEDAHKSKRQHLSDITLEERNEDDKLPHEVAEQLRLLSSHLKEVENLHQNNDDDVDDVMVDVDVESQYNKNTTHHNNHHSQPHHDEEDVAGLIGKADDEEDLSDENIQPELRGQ
Method: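 Universal 'all 10-mer' protein binding microarrays (Agilent AMADID 015681) probed with GST-tagged S. cerevisiae TFs (full-length or DBD) made by in vitro transcription/translation (PURExpress), about 100-200 nM. Bound TF was detected with fluorescent anti-GST. Each ungapped 8-mer (which stands for itself and its reverse complement) is scored by the PBM enrichment score (E-score), a modified Wilcoxon-Mann-Whitney statistic from -0.5 to +0.5, computed with the Universal PBM Analysis Suite. Scale: above 0.35 generally sequence-specific binding.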

Row | Sequence | PBM E-score
1 | CGCTAGGA | -0.142
2 | CGCATACG | 0.0412
3 | CCTTAAGG | -0.0777
4 | GGGTTGAA | -0.0879
5 | ATCAGTCC | -0.133
6 | ACCTGCGT | -0.045
7 | GTGGCCAA | -0.0965
8 | GGCCTTTA | -0.171
9 | GATGGGGA | -0.241
10 | GAAGTAGC | -0.0902
11 | AACCACAT | 0.182
12 | AAGGGACG | -0.136
13 | TAAAGGCA | 0.11
14 | ACAAAAGT | 0.0193
15 | CAAAGCCG | 0.0762
16 | GGGAATCA | -0.035
17 | ACAAAATC | 0.129
18 | ACTTGATG | 0.0621
19 | CGAGTAGA | -0.0934
20 | CGGAGAAA | -0.0647
21 | CAGCAGAC | -0.0427
22 | CCAGGTAC | 6e-05
23 | AACCTGCC | -0.14
24 | GCACATAA | 0.0832
25 | CAGCGCCG | -0.238

Row | Sequence | PBM E-score
26 | CCCCTTCG | -0.222
27 | AACTAATA | 0.306
28 | CCAGGTAA | -0.0599
29 | ACGTATCA | 0.33
30 | CCGTGTCC | 0.00491
31 | GTTGGCAA | 0.0422
32 | AAGGTTCG | 0.0153
33 | AGATCAAG | 0.112
34 | TAGAGTAA | 0.0455
35 | CAAAGTCC | -0.141
36 | GCCTAACC | -0.163
37 | TATGTGAA | 0.118
38 | CTTATGTC | 0.00318
39 | TAGGTTAA | 0.027
40 | CAACCGCC | -0.00665
41 | CGGTTCCC | -0.161
42 | CTCCAGAC | -0.186
43 | GGGACAAA | 0.0674
44 | TCCGTTAA | 0.0849
45 | CCGAGACA | -0.0957
46 | CCGTATAC | 0.272
47 | ATCCGGTG | -0.0713
48 | CATGGCCC | -0.187
49 | AAGCGCTT | 0.193
50 | ACTATTCA | 0.187

Row | Sequence | PBM E-score
51 | CTATAGCC | -0.181
52 | CGGTGCAC | -0.0411
53 | CACGATCC | 0.0482
54 | CCGAAGGA | -0.29
55 | CGGCACTC | -0.0551
56 | ATTCAGAA | 0.142
57 | AGAGCTAC | -0.0107
58 | CTAATTAG | 0.162
59 | AGGGGCCC | -0.185
60 | GCACAAGC | -0.284
61 | ATGTAAAT | 0.196
62 | AAATGATA | 0.409
63 | TGATAGCA | 0.243
64 | CTGTCCGC | -0.129
65 | AGCGGATG | -0.055
66 | ATACACGG | 0.202
67 | GACAACCC | 0.0319
68 | GACTTTCA | 0.0556
69 | ACGATCGT | 0.319
70 | AGAACCAC | -0.18
71 | GTGTGTAA | -0.0186
72 | AAGGCCAT | 0.0255
73 | CTGCGCAC | 0.171
74 | CCTCTTGA | -0.0854
75 | GGCCTGTA | -0.323

Row | Sequence | PBM E-score
76 | GTGGGGAA | -0.0299
77 | GCGAAACA | -0.0459
78 | ACCATTGC | -0.119
79 | CGAGTTAC | 0.12
80 | GCCGGTCA | -0.0382
81 | GGTGTTAA | 0.0588
82 | ATCATGCA | 0.0322
83 | AGAGGTTC | -0.148
84 | CTCAATTC | -0.134
85 | CTCACGAG | 0.0775
86 | CCGAATAC | 0.0415
87 | AAATAATG | 0.207
88 | GGACGAAC | 0.323
89 | ATATGGTA | 0.168
90 | AACGTAGT | 0.0741
91 | CACATTGA | 0.0367
92 | GTAAGATA | 0.178
93 | ACCCTGGC | -0.103
94 | CGTTGTAA | 0.167
95 | GCTAAGCA | -0.0777
96 | ACTACATC | 0.07
97 | CTCGTCAC | 0.336
98 | TATCAAAA | 0.232
99 | GATCACAA | 0.26
100 | ATATACAA | 0.0677

Row | Sequence | PBM E-score
101 | GCCCGAGA | -0.194
102 | CCAAGCAC | -0.102
103 | GAAACGGC | 0.00884
104 | CAACTTTA | 0.116
105 | CAGCTTGG | -0.144
106 | ACGGGTAA | 0.0732
107 | GCGAAACC | -0.0603
108 | CACCGCAC | -0.14
109 | GCATGGCA | -0.0479
110 | CCGAGAGC | -0.176
111 | AAAGGAAC | -0.0426
112 | TCTATAGA | -0.184
113 | GCGCCCAA | 0.0467
114 | CTAACCTC | -0.0908
115 | AGGCCCAT | -0.282
116 | GAGGCCCC | -0.298
117 | AAAGGTTA | -0.0444
118 | ACCGCCGC | -0.0966
119 | ATTAGCAA | 0.206
120 | GGTGATAC | 0.186
121 | AAAAGCAG | -0.151
122 | ACCGCGTC | 0.099
123 | TATCGTAA | 0.243
124 | CACAGCAG | -0.113
125 | ACGGGAGC | 0.138

Row | Sequence | PBM E-score
126 | ACACGTGC | 0.118
127 | ATAAGGAC | 0.0459
128 | CAACGGTA | 0.0381
129 | AATACGTA | 0.135
130 | ATTATCAC | 0.434
131 | TATCTTAA | 0.126
132 | TAGGTCCA | -0.0215
133 | CCAGATGA | 0.0858
134 | CCCAAGCC | -0.131
135 | CAGCCACA | -0.154
136 | AATCGATT | 0.146
137 | CTGGCACC | -0.0999
138 | CTGCGTAC | 0.0269
139 | CATGAACG | -0.125
140 | AGTCTCAC | -0.167
141 | GGGGGCGA | -0.365
142 | ACTGTGAT | 0.114
143 | CTCTATAA | -0.129
144 | ATAAGCAC | -0.0466
145 | TACTGACA | -0.0216
146 | CATATAGG | -0.0562
147 | ACCGGCGA | -0.128
148 | CTGGGTGC | -0.289
149 | ACATCATC | 0.328
150 | GGCCAATA | 0.0241

Row | Sequence | PBM E-score
151 | AAACTATC | 0.0484
152 | AGCTTACA | 0.0321
153 | CTCGTAGA | 0.106
154 | CGATTCCG | -0.0782
155 | GAAGTGGA | 0.00297
156 | AAACCAGC | 0.0956
157 | GGGAGGAA | -0.22
158 | TAGCGGCA | 0.00307
159 | CGGTCTTC | 0.0029
160 | GTGATCGA | 0.227
161 | TCCGGCGA | 0.069
162 | GACCTCCA | -0.121
163 | CCGGACAA | -0.0436
164 | AACGCGGC | -0.116
165 | GGAGTATA | 0.0773
166 | ATTGGCCA | -0.232
167 | TGGTGCAA | -0.133
168 | GTCCCTTA | 0.176
169 | CCCATGAG | -0.117
170 | ATGAATGA | 0.175
171 | GGAAAGCC | -0.0669
172 | GAAGATGA | 0.214
